Laboratory results taken from publication PMC11999059.
These are yes or no findings as the source states them, for the method shown. Binding seen in cells or lysates may run through a third protein. Some results given as binding are weak or reduced against the parent protein; the word gives no strength.

Sequences of proteins named here, by UniProt entry; tags and fusion partners are left off.
UniProt P84022: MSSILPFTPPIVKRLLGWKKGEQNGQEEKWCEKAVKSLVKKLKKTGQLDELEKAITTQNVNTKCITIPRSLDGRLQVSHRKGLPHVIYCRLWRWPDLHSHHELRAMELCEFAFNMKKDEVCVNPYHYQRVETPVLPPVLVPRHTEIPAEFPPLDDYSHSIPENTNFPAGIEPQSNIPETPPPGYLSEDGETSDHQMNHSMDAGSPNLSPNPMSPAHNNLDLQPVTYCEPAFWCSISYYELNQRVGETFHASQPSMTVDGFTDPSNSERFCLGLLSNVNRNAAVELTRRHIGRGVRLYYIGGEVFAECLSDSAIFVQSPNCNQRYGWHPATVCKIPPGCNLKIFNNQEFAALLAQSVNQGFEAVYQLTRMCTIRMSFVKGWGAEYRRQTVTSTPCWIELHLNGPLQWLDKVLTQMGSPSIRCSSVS

Molecular target: full-length p53 (FLp53), endogenous (human (endogenous in LX-2)) (UniProt P04637)
Assay: co-IP; untransfected LX-2 cells (endogenous proteins), vehicle or 5 ng/mL TGFβ1 for 24 h; lysate incubated with antibody against FLp53 or control IgG, Protein A/G magnetic beads, western blot for Smad3, p-Smad3, FLp53 and Δ40p53α

Substance: phosphorylated Smad3 (p-Smad3), endogenous (from UniProt P84022 1-425)
- binding: binds
